Assay results from patent US11192894B2, “Cell impermeable coelenterazine analogues” (PROMEGA CORPORATION, priority 2016, dated 2021).

Test: Autoluminescence of substrate in NanoGlo buffer
Settings: relative value, furimazine set to 1

Row | SMILES | AutoLuminescence in NanoGlo Buffer
1 | CC(C)(C)OC(=O)CCCOc1cccc(Cc2nc3c(Cc4ccccc4)[nH]c(-c4ccccc4)cn-3c2=O)c1 [JRW-0714, tert-butyl 4-(3-((8-benzyl-3-oxo-6-phenyl-3,7-dihydroimidazo[1,2-a]pyrazin-2-yl)methyl)phenoxy)butanoate] | 0.5
2 | NCCCCCCOc1cccc(Cc2nc3c(Cc4ccccc4)[nH]c(-c4ccccc4)cn-3c2=O)c1 [TAK-0039, 2-(3-((6-aminohexyl)oxy)benzyl)-8-benzyl-6-phenylimidazo[1,2-a]pyrazin-3(7H)-one] | 0.6
3 | O=c1c(Cc2cccc(OCCCCCCBr)c2)nc2c(Cc3ccccc3)[nH]c(-c3ccccc3)cn1-2 [JRW-0692, 8-benzyl-2-(3-((6-bromohexyl)oxy)benzyl)-6-phenylimidazo[1,2-a]pyrazin-3(7H)-one] | 0.6
4 | O=c1c(Cc2ccc(OCCCCCCS(=O)(=O)[O-])c(F)c2)nc2c(Cc3ccccc3)[nH]c(-c3ccccc3)cn1-2.[Na+] [JRW-0769, sodium 6-(4-((8-benzyl-3-oxo-6-phenyl-3,7-dihydroimidazo[1,2-a]pyrazin-2-yl)methyl)-2-fluorophenoxy)hexane-1-sulfonate] | 1
5 | NCCCCCCOc1ccc(Cc2nc3c(Cc4ccccc4)[nH]c(-c4ccccc4)cn-3c2=O)cc1F [JRW-0801, 2-(4-((6-aminohexyl)oxy)-3-fluorobenzyl)-8-benzyl-6-phenylimidazo[1,2-a]pyrazin-3(7H)-one] | 0.6
6 | CC(=O)N[C@@H](CC(=O)O)C(=O)N[C@@H](CC(=O)O)C(=O)N[C@@H](CC(=O)O)C(=O)NCCCCCCOc1cccc(Cc2nc3c(Cc4ccccc4)[nH]c(-c4ccccc4)cn-3c2=O)c1 [JRW-0741, (S)-3-acetamido-4-(((S)-1-(((S)-1-((6-(3-((8-benzyl-3-oxo-6-phenyl-3,7-dihydroimidazo[1,2-a]pyrazin-2-yl)methyl)phenoxy)hexyl)amino)-3-carboxy-1-oxopropan-2-yl)amino)-3-carboxy-1-oxopropan-2-yl)amino)-4-oxobutanoic acid] | 1.2
7 | CC(=O)N[C@@H](CC(=O)O)C(=O)N[C@@H](CC(=O)O)C(=O)N[C@@H](CC(=O)O)C(=O)NCCCCCCOc1ccc(Cc2nc3c(Cc4ccccc4)[nH]c(-c4ccccc4)cn-3c2=O)cc1F [JRW-0806, (S)-3-acetamido-4-(((S)-1-(((S)-1-((6-(4-((8-benzyl-3-oxo-6-phenyl-3,7-dihydroimidazo[1,2-a]pyrazin-2-yl)methyl)-2-fluorophenoxy)hexyl)amino)-3-carboxy-1-oxopropan-2-yl)amino)-3-carboxy-1-oxopropan-2-yl)amino)-4-oxobutanoic acid] | 0.7
8 | O=c1c(Cc2cc(F)c(OCCCCCCS(=O)(=O)[O-])c(F)c2)nc2c(Cc3ccccc3)[nH]c(-c3ccccc3)cn1-2.[Na+] [JRW-0771, sodium 6-(4-((8-benzyl-3-oxo-6-phenyl-3,7-dihydroimidazo[1,2-a]pyrazin-2-yl)methyl)-2,6-difluorophenoxy)hexane-1-sulfonate] | 1.2
9 | O=c1c(Cc2ccc(OCCCCCCS(=O)(=O)[O-])c(Cl)c2)nc2c(Cc3ccccc3)[nH]c(-c3ccccc3)cn1-2.[Na+] [JRW-0728, sodium 6-(4-((8-benzyl-3-oxo-6-phenyl-3,7-dihydroimidazo[1,2-a]pyrazin-2-yl)methyl)-2-chlorophenoxy)hexane-1-sulfonate] | 0.8
10 | O=c1c(Cc2cccc(OCCCCCCS(=O)(=O)[O-])c2)nc2c(Cc3ccccc3)[nH]c(-c3ccccc3)cn1-2.[Na+] [JRW-0703, sodium 6-(3-((8-benzyl-3-oxo-6-phenyl-3,7-dihydroimidazo[1,2-a]pyrazin-2-yl)methyl)phenoxy)hexane-1-sulfonate] | 0.8
11 | O=C(O)c1ccc(-c2cn3c(=O)c(Cc4ccco4)nc-3c(Cc3ccccc3)[nH]2)cc1 [JRW-0790, 4-(8-benzyl-2-(furan-2-ylmethyl)-3-oxo-3,7-dihydroimidazo[1,2-a]pyrazin-6-yl)benzoic acid] | 9
12 | O=C(O)CCCCCOc1cccc(Cc2nc3c(Cc4ccccc4)[nH]c(-c4ccccc4)cn-3c2=O)c1 [JRW-0684, 6-(3-((8-benzyl-3-oxo-6-phenyl-3,7-dihydroimidazo[1,2-a]pyrazin-2-yl)methyl)phenoxy)hexanoic acid] | 1.2
13 | O=c1c(Cc2ccc(OCCCCCCCCS(=O)(=O)[O-])c(Cl)c2)nc2c(Cc3ccccc3)[nH]c(-c3ccccc3)cn1-2.[Na+] [JRW-0761, sodium 8-(4-((8-benzyl-3-oxo-6-phenyl-3,7-dihydroimidazo[1,2-a]pyrazin-2-yl)methyl)-2-chlorophenoxy)octane-1-sulfonate] | 4.6
14 | O=C(O)CCCOc1cccc(Cc2nc3c(Cc4ccccc4)[nH]c(-c4ccccc4)cn-3c2=O)c1 [JRW-0716, 4-(3-((8-benzyl-3-oxo-6-phenyl-3,7-dihydroimidazo[1,2-a]pyrazin-2-yl)methyl)phenoxy)butanoic acid] | 2.1
15 | CC(C)(C)OC(=O)CCCCCOc1cccc(Cc2nc3c(Cc4ccccc4)[nH]c(-c4ccccc4)cn-3c2=O)c1 [JRW-0682, tert-butyl 6-(3-((8-benzyl-3-oxo-6-phenyl-3,7-dihydroimidazo[1,2-a]pyrazin-2-yl)methyl)phenoxy)hexanoate] | 0.3
16 | O=c1c(Cc2ccc(Cl)c(OCCCCCCS(=O)(=O)[O-])c2)nc2c(Cc3ccccc3)[nH]c(-c3ccccc3)cn1-2.[Na+] [JRW-0766, sodium 6-(5-((8-benzyl-3-oxo-6-phenyl-3,7-dihydroimidazo[1,2-a]pyrazin-2-yl)methyl)-2-chlorophenoxy)hexane-1-sulfonate] | 1
17 | O=c1c(Cc2cccc(OCCCS(=O)(=O)[O-])c2)nc2c(Cc3ccccc3)[nH]c(-c3ccccc3)cn1-2.[Na+] [JRW-0713, sodium 3-(3-((8-benzyl-3-oxo-6-phenyl-3,7-dihydroimidazo[1,2-a]pyrazin-2-yl)methyl)phenoxy)propane-1-sulfonate] | 1.3
18 | CC(C)(C)OC(=O)CCCCCCCOc1cccc(Cc2nc3c(Cc4ccccc4)[nH]c(-c4ccccc4)cn-3c2=O)c1 [JRW-0719, tert-butyl 8-(3-((8-benzyl-3-oxo-6-phenyl-3,7-dihydroimidazo[1,2-a]pyrazin-2-yl)methyl)phenoxy)octanoate] | 0.4
19 | O=c1c(Cc2ccc(OCCCCCCBr)c(Cl)c2)nc2c(Cc3ccccc3)[nH]c(-c3ccccc3)cn1-2 [JRW-0720, 8-benzyl-2-(4-((6-bromohexyl)oxy)-3-chlorobenzyl)-6-phenylimidazo[1,2-a]pyrazin-3(7H)-one] | 0.4
20 | CC(C)(C)OC(=O)CCCCCOc1ccc(Cc2nc3c(Cc4ccccc4)[nH]c(-c4ccccc4)cn-3c2=O)cc1Cl [JRW-0725, tert-butyl 6-(4-((8-benzyl-3-oxo-6-phenyl-3,7-dihydroimidazo[1,2-a]pyrazin-2-yl)methyl)-2-chlorophenoxy)hexanoate] | 0.4
21 | O=c1c(Cc2ccc(OCCCCCCS(=O)(=O)OCC(Cl)(Cl)Cl)c(Cl)c2)nc2c(Cc3ccccc3)[nH]c(-c3ccccc3)cn1-2 [JRW-0665, 2,2,2-trichloroethyl 6-(4-((8-benzyl-3-oxo-6-phenyl-3,7-dihydroimidazo[1,2-a]pyrazin-2-yl)methyl)-2-chlorophenoxy)hexane-1-sulfonate] | 0.4
22 | CC(C)(C)OC(=O)c1cccc(-c2cn3c(=O)c(Cc4ccco4)nc-3c(Cc3ccccc3)[nH]2)c1 [JRW-0755, tert-butyl 3-(8-benzyl-2-(furan-2-ylmethyl)-3-oxo-3,7-dihydroimidazo[1,2-a]pyrazin-6-yl)benzoate] | 0.6
23 | O=c1c(Cc2ccc(OCCCCCCCCCCS(=O)(=O)[O-])c(Cl)c2)nc2c(Cc3ccccc3)[nH]c(-c3ccccc3)cn1-2.[Na+] [JRW-0765, sodium 10-(4-((8-benzyl-3-oxo-6-phenyl-3,7-dihydroimidazo[1,2-a]pyrazin-2-yl)methyl)-2-chlorophenoxy)decane-1-sulfonate] | 1.1
24 | O=C(O)CCCCCCCOc1cccc(Cc2nc3c(Cc4ccccc4)[nH]c(-c4ccccc4)cn-3c2=O)c1 [JRW-0722, 8-(3-((8-benzyl-3-oxo-6-phenyl-3,7-dihydroimidazo[1,2-a]pyrazin-2-yl)methyl)phenoxy)octanoic acid] | 0.9
25 | O=c1c(Cc2ccco2)nc2c(Cc3ccccc3)[nH]c(-c3ccccc3)cn1-2 [Furimazine, reference compound] | 1
26 | O=c1c(Cc2ccc(OCCCCCCS(=O)(=O)O)c(Cl)c2)nc2c(Cc3ccccc3)[nH]c(-c3cccc(O)c3)cn1-2 [JRW-0805, 6-(4-((8-benzyl-6-(3-hydroxyphenyl)-3-oxo-3,7-dihydroimidazo[1,2-a]pyrazin-2-yl)methyl)-2-chlorophenoxy)hexane-1-sulfonic acid] | 2
